Experimental data: PubChem BioAssay AID652054 (National Center for Advancing Translational Sciences (NCATS), 2013)
Several values for one entry are separate records, joined by “and”; a condition that tells them apart may be missing. Equal values may be shown once. Screen size: about 360,000 compounds; about 9,100 (2.5%) were called active. The shares of active, inactive and inconclusive entries below differ from those in the screen. Cut-off read from the data, not from the text of the source: active = max response below about -50%; inconclusive = no clear call, values can overlap the other calls; inactive = above that. Square brackets hold non-standard residues; d marks the D form. Peptide text beside a SMILES is read from it. * marks the point of attachment. ξ: configuration not given here. ξF = NC(Cc1ccccc1)C(=O)O; Cbz = O=C(OCc1ccccc1)*

Amino acid sequences for entries named in this document (tags omitted).
UniProt P35462, whole entry, looked up: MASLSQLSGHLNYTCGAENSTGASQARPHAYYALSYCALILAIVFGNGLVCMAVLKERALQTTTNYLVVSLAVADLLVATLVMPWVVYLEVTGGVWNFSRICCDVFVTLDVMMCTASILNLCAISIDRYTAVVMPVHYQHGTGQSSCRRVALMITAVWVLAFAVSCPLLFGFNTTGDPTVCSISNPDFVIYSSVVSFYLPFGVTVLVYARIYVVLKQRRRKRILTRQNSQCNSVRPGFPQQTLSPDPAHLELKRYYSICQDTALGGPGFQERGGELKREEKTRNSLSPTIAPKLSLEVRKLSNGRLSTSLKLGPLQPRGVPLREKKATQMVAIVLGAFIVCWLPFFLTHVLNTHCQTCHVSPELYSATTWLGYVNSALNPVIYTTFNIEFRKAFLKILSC

Molecular target: D(3) dopamine receptor (Homo sapiens) (UniProt P35462)
Test: qHTS of D3 Dopamine Receptor Antagonist: qHTS
Conditions: D3R cells, DiscoveRx beta-arrestin luminescence, antagonist mode; stronger effect = lower value
In short: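 Cells plated overnight at 1500 cells/well, then exposed to library compounds with dopamine controls for 90 minutes at 37 degrees C. DiscoveRx reagent added for 30–60 minutes at room temperature; luminescence read, quantitative HTS format.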
% is set by controls: 0 for no effect and ±100 for the full control effect.

Compound | max response, negative = inhibition
Cc1cc(C)cc(OCC(=O)O/N=C(\N)c2ccccn2)c1 | inconclusive: -34%
COC(=O)CN1C(C)=Nc2ccc(Br)cc2C1c1ccccc1 (stereo not given) | active: -64%
CCOC(=O)C(Cc1ccccc1)NC(=O)CNC(=O)CNC(=O)OCc1ccccc1 (stereo not drawn) (Cbz-Gly-Gly-[ξF]-OEt) | inconclusive: -37.7%
Cc1nn(-c2ccccc2)c(Cl)c1/C=N/NC(=O)CNC(=O)c1ccccc1Cl | inactive: -7.04%
O=c1[nH]cnc2c1c(-c1ccccc1)cn2-c1ccc(Br)cc1 | inconclusive: -41.9%
CCOc1ccccc1NC(=O)NC1CCN(CC(=O)Nc2ccc3c(c2)OCCO3)CC1 | inconclusive: -46.1%
O=S1(=O)[C@H]2C[C@@H]3C=C[C@@]2(CN1Cc1ccc(F)cc1)O3 | inactive: -21.2%
O=S(=O)(Cc1cccc(F)c1)c1c[nH]c2ccccc12 | inconclusive: -34%
Cc1ccc(S(=O)(=O)c2cnc(-c3ccccc3)nc2N2CCN(C)CC2)cc1 | inconclusive: -30.6%
COc1ccc(OCc2cccc(C(=O)Nn3cc([N+](=O)[O-])cn3)c2)cc1 | active: -65.3%
O=C(c1c[nH]c2ccccc2c1=O)N1CCCCCC1 | inconclusive: -38.7%
CCOC(=O)C1CCN(Cc2ccc3ccccc3c2)CC1 | active: -74.9%
O=C(Nc1nnc(SCc2ccc(Cl)cc2)s1)c1ccco1 | inconclusive: -32.9%
CCCC(CCC)C(=O)O | inactive: 6.58% and inactive: 5.84%
COc1ccc(C(=O)Nc2ccc(C(=O)NCCc3ccccc3)cc2)cc1 | inconclusive: -32.8%
S=c1[nH]nc(-c2cc(-c3ccccc3)n[nH]2)n1/N=C/c1ccc(Cl)cc1 | active: -55%
O=C(N/N=C/c1cc(Cl)cc([N+](=O)[O-])c1O)C(O)(c1ccccc1)c1ccccc1 | active: -89.3%
CC1(C)C[C@H](O)[C@]2(CO)[C@H](O)C[C@]3(C)C(=CCC4[C@@]5(C)CC[C@H](O)C(C)(C)C5CC[C@]43C)[C@@H]2C1 (stereo not given in full) | active: -84.4%
COC(=O)c1ccc(/C=N/NC(=O)CC(=O)NCC(C)C)cc1 | inconclusive: -30.1%
O=c1ccsn1Cc1ccccc1 | inconclusive: -47.7%
CNc1ncnc2c1ncn2[C@H]1CN(CCOC)C[C@@H](CO)O1 | active: -55.9%
COC(C[C@H](O)C[C@@H](O)COCc1ccccc1)OC | active: -107%

Compound | max response, negative = inhibition
S=c1[nH]nc(-c2cc(-c3ccco3)[nH]n2)n1-c1ccccc1Cl | active: -51.7%
CCOC(=O)C1CCCN(CCC(=O)Nc2ccc(C)c(C)c2)C1 (stereo not given) | inconclusive: -49.6%
CN(C)CCCNC(=O)C[C@H]1C[C@H](C(=O)N2CCOCC2)[C@@]2(CCC3CCCC3)c3[nH]c4cc(-c5ccco5)ccc4c3CCN2C1=O | inactive: -6.95%
O=c1cc(-c2ccccc2)[nH][nH]1 | inconclusive: -30.8%
O=S(=O)(c1ccccc1)c1nc(-c2ccc(Cl)cc2)oc1NCCCN1CCOCC1 | inconclusive: -49.8%
CCC1Oc2ccc(C)cc2N(CC(=O)NCCN2CCCCCC2)C1=O (stereo not given) | inconclusive: -33.4%
O=c1[nH][nH]c2cc([N+](=O)[O-])ccc12 | inactive: 0%
CCC(C)(C)n1nnnc1C(c1cc2ccc(OC)cc2[nH]c1=O)N1CCN(C2CCCCC2)CC1 (stereo not given) | active: -63.6%
CCC(=O)N1CCN(c2ccc(Cl)cc2NC(=O)c2ccc3c(c2)OCCO3)CC1 | inconclusive: -33.8%
O=C(NCCCN1CCN(c2cccc(Cl)c2)CC1)c1cccc(N2CCCC2=O)c1 | inconclusive: -41%
O=C(Nc1cccc(C(=O)N2CCCCC2)c1)C1CCCC1 | inconclusive: -33%
CN1C(=O)CC(Sc2ncccc2C(=O)O)C1=O (stereo not given) | inconclusive: -33.1%
COc1ccc(NS(=O)(=O)c2cccc(C(=O)NN=Cc3ccc(OC)c(O)c3)c2)cc1 | inconclusive: -35.2%
COc1cc(NC(=S)NC(=O)CCc2ccccc2)cc(OC)c1 | active: -52.5%
O=C(Nc1cccc2ncccc12)c1cc2ccccc2o1 | inconclusive: -49.6%
Cc1ccc(N=C2N=C(N)c3ccccc32)cc1C | inconclusive: -46.8%
CC(C)C1C(C#N)=C(N)Oc2n[nH]c(C(C)(C)C)c21 (stereo not given) | inconclusive: -33.7%
CCCCn1nnnc1C(c1cccc(OC)c1OC)N1CCN(C/C=C/c2ccccc2)CC1 (stereo not given) | inconclusive: -47.4%
O=C(CNC(=O)c1ccccc1F)Nc1ccc2c(c1)CCC2 | inactive: -7.16%
Cc1ccc(C(O)c2ncc(-c3ccc(Cl)cc3)[nH]2)cc1F (stereo not given) | inconclusive: -40.3%
CCc1ccc(/C=C/C(=O)c2ccc(N3CCOCC3)cc2)cc1 | inactive: 17.6%
O=C1C=CC(=O)C(CNc2ccc(C(=O)OCc3ccccc3)cc2)=C1 | inconclusive: -44.2%
COc1ccc(-c2cc(=O)[nH]c(=S)[nH]2)cc1 | active: -50.2%

A section from the list above, for reference:
Compound | max response, negative = inhibition
CNc1ncnc2c1ncn2[C@H]1CN(CCOC)C[C@@H](CO)O1 | active: -55.9%
COC(C[C@H](O)C[C@@H](O)COCc1ccccc1)OC | active: -107%
S=c1[nH]nc(-c2cc(-c3ccco3)[nH]n2)n1-c1ccccc1Cl | active: -51.7%
CCOC(=O)C1CCCN(CCC(=O)Nc2ccc(C)c(C)c2)C1 (stereo not given) | inconclusive: -49.6%
CN(C)CCCNC(=O)C[C@H]1C[C@H](C(=O)N2CCOCC2)[C@@]2(CCC3CCCC3)c3[nH]c4cc(-c5ccco5)ccc4c3CCN2C1=O | inactive: -6.95%
O=c1cc(-c2ccccc2)[nH][nH]1 | inconclusive: -30.8%
O=S(=O)(c1ccccc1)c1nc(-c2ccc(Cl)cc2)oc1NCCCN1CCOCC1 | inconclusive: -49.8%
CCC1Oc2ccc(C)cc2N(CC(=O)NCCN2CCCCCC2)C1=O (stereo not given) | inconclusive: -33.4%
O=c1[nH][nH]c2cc([N+](=O)[O-])ccc12 | inactive: 0%
CCC(C)(C)n1nnnc1C(c1cc2ccc(OC)cc2[nH]c1=O)N1CCN(C2CCCCC2)CC1 (stereo not given) | active: -63.6%
CCC(=O)N1CCN(c2ccc(Cl)cc2NC(=O)c2ccc3c(c2)OCCO3)CC1 | inconclusive: -33.8%
O=C(NCCCN1CCN(c2cccc(Cl)c2)CC1)c1cccc(N2CCCC2=O)c1 | inconclusive: -41%
O=C(Nc1cccc(C(=O)N2CCCCC2)c1)C1CCCC1 | inconclusive: -33%
CN1C(=O)CC(Sc2ncccc2C(=O)O)C1=O (stereo not given) | inconclusive: -33.1%
COc1ccc(NS(=O)(=O)c2cccc(C(=O)NN=Cc3ccc(OC)c(O)c3)c2)cc1 | inconclusive: -35.2%
COc1cc(NC(=S)NC(=O)CCc2ccccc2)cc(OC)c1 | active: -52.5%
O=C(Nc1cccc2ncccc12)c1cc2ccccc2o1 | inconclusive: -49.6%
Cc1ccc(N=C2N=C(N)c3ccccc32)cc1C | inconclusive: -46.8%
CC(C)C1C(C#N)=C(N)Oc2n[nH]c(C(C)(C)C)c21 (stereo not given) | inconclusive: -33.7%
CCCCn1nnnc1C(c1cccc(OC)c1OC)N1CCN(C/C=C/c2ccccc2)CC1 (stereo not given) | inconclusive: -47.4%
O=C(CNC(=O)c1ccccc1F)Nc1ccc2c(c1)CCC2 | inactive: -7.16%
Cc1ccc(C(O)c2ncc(-c3ccc(Cl)cc3)[nH]2)cc1F (stereo not given) | inconclusive: -40.3%

(cont.)

Compound | max response, negative = inhibition
Fc1cccc(CCN2CCN=C2Nc2ccccc2)c1 | active: -74.1%
CC(NC(=O)CCC(=O)N1CCN(S(=O)(=O)c2ccc(Cl)cc2)CC1)c1ccccc1 (stereo not given) | inconclusive: -39.1%
Clc1ccccc1Cn1nc(-c2ccccc2)nc1-c1ccccc1 | inactive: 5.24%
CCOC(=O)c1c(C)cccc1OCC(N)=O | inconclusive: -47.2%
CCOC(=O)[C@]12CCCC=C1N(Cc1ccc3c(c1)OCO3)C(=O)[C@H](CC(=O)NCC13CC4CC(CC(C4)C1)C3)C2 | inactive: -8.3%
Cc1nnc2ccc(-c3cccc(NS(=O)(=O)c4cc(F)ccc4F)c3)nn12 | inconclusive: -31.2%
C/C(COc1ccccc1)=N\NC(=O)c1nnn(-c2nonc2N)c1-c1ccc(C)cc1 | inconclusive: -45.6%
Cc1cc(N2CCN(C3CCCCC3)CC2)nc2cccc(O)c12 | active: -83.9%
O=S(=O)(NCCC1=CCCCC1)c1cccc(S(=O)(=O)N2CCOCC2)c1 | active: -71.8%
FC(F)(F)C(F)(F)C(F)(F)c1nc2nc(Cl)c(Cl)nc2[nH]1 | inconclusive: -30.9%
Cc1ccccc1N1CCN(C2CCCN(C(=O)CCc3c(C)noc3C)C2)CC1 (stereo not given) | inconclusive: -37.8%
CCNC(=S)N/N=C/c1cccc(OCc2c(F)cccc2Cl)c1 | inactive: -19.6%
COCC(=O)N(C)CC1CCCN(CCc2ccccc2OC)C1 (stereo not given) | active: -64.1%
CN1CCN(C(=S)c2ccc(-c3cc(Cl)ccc3Cl)o2)CC1 | inconclusive: -38.6%
O=S(=O)(Nc1nc2ccccc2nc1Cl)c1ccc(Cl)cc1 | inactive: 24.8%
Cc1nn(-c2ccccc2)c2sc(C(=O)N(Cc3ccco3)C(C)C(=O)NC(C)(C)C)cc12 (stereo not given) | inconclusive: -47.1%
O=C(Cc1ccc(Cl)c(Cl)c1)NNC(=S)NCC1CCCO1 (stereo not given) | inconclusive: -36.9%
Cn1cnc([N+](=O)[O-])c1Cl | inactive: 18%
Cn1cc(/C=C(\NC(=O)c2ccccc2)C(=O)NCCN2CCOCC2)c2ccccc21 | inconclusive: -31.3%
Cc1cc(C)c(NC(=O)CCCC(=O)O)c(Cl)c1 | inconclusive: -32.3%
CCCCN(C=O)c1c(CC)nc2ccc(C(=O)NCc3ccccc3OC)cn12 | active: -50.8%
C[C@H](O)[C@@H]1CN2CCc3c([nH]c4ccccc34)[C@@H]2C[C@@H]1N(C)C(=O)Nc1cccc2ccccc12 | active: -58%
Oc1c(Cl)cc(Cl)cc1/C=N/c1nccs1 | inactive: 0%

Compound | max response, negative = inhibition
CN(CCC(=O)Nc1ccc2c(c1)OCO2)Cc1ccccc1 | active: -73.2%
CCOC(=O)CCNCC1COc2ccccc2O1 (stereo not given) | inconclusive: -44.6%
COc1ccc(NC(=O)CN2CCC(C(N)=O)(N3CCCCC3)CC2)cc1 | inconclusive: -30.1%
O=C(COC(=O)/C=C/c1cccs1)Nc1nc(-c2ccccc2)cs1 | inactive: -14.5%
CCN1CCN(Cc2cccc(Oc3ccccc3)c2)CC1 | active: -52.3%
Cn1c(=O)c2c(ncn2CCCc2ccccc2)n(C)c1=O | inactive: 21.2%
CC(=O)N1CCN(Cc2nc3cc(NC(=O)Cn4nc(C)c5ccccc5c4=O)ccc3n2C)CC1 | inactive: -27.7%
CCN(CC)CCCNC(=O)Cn1ncn2cccc2c1=O | active: -73.2%
O=C(/C=C/c1cccc([N+](=O)[O-])c1)c1ccco1 | inconclusive: -38.1%
Cc1ccc(NC(=O)CN2C(=O)c3ccccc3C2=O)c(C)c1 | inconclusive: -38.9%
Cc1nonc1NC(=O)CSc1cn[nH]n1 | inconclusive: -33.9%
COC(=O)c1cnc(NC(=O)C2(C)CCCN(C(C)=O)C2)s1 (stereo not given) | inconclusive: -38.5%
Cc1cccc2nc(CSc3nc4ccc([N+](=O)[O-])cc4[nH]3)c(Br)n12 | inconclusive: -32.9%
Cc1cc(Cl)ccc1OCCCC(=O)NN | inactive: 4.14%
S=c1[nH]nc(-c2cccnc2)n1-c1ccc2c(c1)OCCO2 | inconclusive: -31.3%
O=C(CSc1nnc(-c2ccc(Cl)cc2)n1Cc1ccco1)NCc1ccc2c(c1)OCO2 | inconclusive: -48.9%
C=CCNc1nc(C)c(C(C)=O)cc1C#N | inconclusive: -30.6%
N/C(CC(=O)Nc1cc(C(F)(F)F)ccc1Cl)=N\O | inactive: -16.6%
CCOc1ccc(C(=O)CN2CCN(S(=O)(=O)c3ccc(Br)cc3)CC2)cc1 | inconclusive: -40.5%
Cc1ccc(NCCC(=O)c2cccc([N+](=O)[O-])c2)c(C)c1 | inactive: -1.83%
CCc1nc2c(OCc3ccccc3C)cccn2c1N(C)C(=O)C(C)C | active: -78.2%
